For 15 molecules, cell number change and AC50 results are on record in PubChem BioAssay AID2685 (National Center for Advancing Translational Sciences (NCATS), 2010).

The list shows a part of the results. These are further read-outs of the screen, such as a control signal, another cell line or another target. No call is given for them. Compounds called inactive in the main read-out are mostly missing here. Potencies come from curve fits of mixed quality, noted in brackets.

The nature of the experiment: qHTS Assay for Lipid Storage Modulators in Drosophila S3 Cells.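 For cell number change: cells counted by Cell Tracker Red CMTPX staining in the red channel.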 The settings on record: BODIPY lipid droplet fluorescence, 18-24 h; for cell number change: measured here: cell count max response, cells fed with added oleic acid. In a few lines:
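Drosophila S3 cells loaded with oleic acid (400 uM, as added) and compounds at several concentrations; lipid droplets imaged by 488-nm laser-scanning cytometry, 500–530 nm intensity and object ratio to cell channel. Percent activity normalized to 20 uM Triacsin C.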
A general note: Quantitative high-throughput screening tests each substance at several concentrations.

Setting [1] is: measured here: cell number channel AC50, cells fed with added oleic acid.
Where [2] appears, read: measured here: lipid fluorescence (Fed channel) AC50, cells fed with added oleic acid.

As usually defined, the AC50 is the midpoint of the concentration-response curve, whichever way the signal moves. Lower therefore signals activity at low concentration. As for `C=CCOC(=O)C(C#N)c1nc2ccccc2nc1N1CCN(c2ccccc2OCC)CC1` (centres undefined), the cell number change was -48%. The half-maximal activity concentration (AC50) under setting [1] is 18.4 µM [falling, single point]. In addition, the AC50 under setting [2] was 18.4 µM [falling, single point].

`Cc1cc(C)c(C)c(S(=O)(=O)N2CCC(C(=O)N3CCCCCCC3)CC2)c1C`: the cell number change is -43.6%. Also, under setting [1], the concentration at half-maximal activity (AC50) is 5.8 µM [falling, full curve, poor fit]. Further, the AC50 under setting [2] is 0.651 µM [falling, partial curve, poor fit].

For `Cc1ccc(S(=O)(=O)c2c(C)cc(C)nc2N2CCCCC2)cc1`, the cell number change was 13.8%. Besides, the AC50 under setting [1] is 4.11 µM [falling, single point]. Besides, the half-maximal activity concentration (AC50) under setting [2] is 3.26 µM [falling, partial curve, poor fit].

Turning to `Cc1nn(CCc2nn[nH]n2)c2nc(-c3ccc(C4CCCCC4)cc3)cc(C(F)(F)F)c12`, the cell number change is -46.2%. In addition, the half-maximal activity concentration (AC50) under setting [1] is 29.1 µM [falling, single point].

As for `Cc1cc(C)c(OCCOCCN2CCNCC2)c(C)c1`, the cell number change is -46.1%. Under setting [1], the AC50 was 2.31 µM [falling, partial curve, poor fit]. In addition, the AC50 under setting [2] was 3.66 µM [falling, partial curve].

Take `COc1cccc(C2=CC(=O)C[C@H](c3ccc(Cl)cc3)C2)c1`: the cell number change is -0.963%. The half-maximal activity concentration (AC50) under setting [2] is 23.1 µM [rising, partial curve].

As for `CCc1nn(C(C)C(=O)NCCc2ccccc2)c(=O)c2cc3occc3n12` (centres undefined), the cell number change is -32.5%. Besides, the AC50 under setting [1] is 32.6 µM [falling, single point].

As to `CC(C)n1cc(/C=C(\C#N)S(=O)(=O)c2ccccc2)c2ccccc21`, the cell number change amounted to 252%. In addition, the AC50 under setting [1] was 29.1 µM [rising, single point]. The concentration at half-maximal activity (AC50) under setting [2] was 6.51 µM [falling, single point].

Consider `COc1ccc(NC(=O)C(=O)c2cn(CC(=O)N3CCCC3)c3ccccc23)c(OC)c1`, for which the cell number change stood at 13.4%.

`Clc1cccc(OCCN2CCCC2)c1`: the cell number change is 6.88%. Further, the concentration at half-maximal activity (AC50) under setting [2] is 8.2 µM [rising, partial curve].

In the case of `CN(/N=C/c1ccc([N+](=O)[O-])o1)c1ccccc1`, the cell number change is -33.2%. Also, the concentration at half-maximal activity (AC50) under setting [1] is 20.6 µM [falling, single point].

As to `CCCOC(=O)c1ccc(NC(=O)Cc2cccs2)cc1`, the cell number change is -13.9%. Also, under setting [1], the AC50 was 2.06 µM [falling, single point].

For the molecule `Cc1ccc(CNC(=O)CCN2C(=O)[C@@H]3Cc4ccccc4CN3C2=O)cc1`, the cell number change turned out to be 21.5%. Besides, under setting [2], the AC50 was 0.58 µM [rising, single point].

In the case of `NC(=O)[C@@H]1CCCN1Cc1nc(Cc2cccc(C(F)(F)F)c2)no1`, the cell number change is 22.3%. For the same molecule, the half-maximal activity concentration (AC50) under setting [2] is 32.6 µM [rising, partial curve, poor fit].

For `CCOC(=O)COc1cccc2c(=O)n(CC(=O)NCCc3ccccc3)ccc12`, the cell number change turned out to be 3.23%. For the same molecule, under setting [2], the half-maximal activity concentration (AC50) was 0.366 µM [falling, partial curve, poor fit].
